PubChem BioAssay AID1259308 – NCATS, 2017
Shown is an unselected part of about 59,000 deposited reagents. About 1,510 of all reagents (2.6%) were called active. 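Calls use total luciferase alone and ignore viability, so some active siRNAs may act by altering cell number.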 A number with no mark means an inactive call. The numbers tell different reagents against one gene apart. Not all columns of the deposit are shown.

Aim: 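Knock-downs that increase output of a recombinant reporter protein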 (primary screen)
System: human HEK293 embryonic kidney cells stably expressing firefly luciferase (HEK-CMV-Luc2-Hygro)
Reagents: single siRNA against human genes, 0.8 pmol siRNA per well
Time to read-out: 72 h
Measured: 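Luciferase light (ONE-Glo) measured on one replicate plate set and viability (CellTiter-Glo) on the other, scaled to a negative control siRNA, with robust z-scores and luciferase per cell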
Scale: total luciferase, z-score and total luciferase, % of control: higher = more reporter protein produced
Call rule: 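An siRNA counts as active if its total luciferase robust z-score exceeds 3; genes with two or more such siRNAs out of three were retested with fresh siRNAs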
Calls: active = raised luciferase; inactive = no rise

RIPK1 (receptor interacting serine/threonine kinase 1) #1
- total luciferase, z-score: -0.353
- total luciferase, % of control: 74.9

RIPK1 (receptor interacting serine/threonine kinase 1) #2
- total luciferase, z-score: 0.337
- total luciferase, % of control: 88.6

RIPK1 (receptor interacting serine/threonine kinase 1) #3
- total luciferase, z-score: -0.783
- total luciferase, % of control: 66.3

TEX50 (testis expressed 50) #1
- total luciferase, z-score: -0.98
- total luciferase, % of control: 62.4

TEX50 (testis expressed 50) #2
- total luciferase, z-score: -0.62
- total luciferase, % of control: 69.6

TEX50 (testis expressed 50) #3
- total luciferase, z-score: -2.02
- total luciferase, % of control: 41.7

PRKRA #1
- total luciferase, z-score: 1.1
- total luciferase, % of control: 104

PRKRA #2
- total luciferase, z-score: 0.882
- total luciferase, % of control: 99.4

PRKRA #3
- total luciferase, z-score: -0.159
- total luciferase, % of control: 78.7

3 neighbouring reagents from above, quoted:
PRKRA #1
- total luciferase, z-score: 1.1
- total luciferase, % of control: 104

PRKRA #2
- total luciferase, z-score: 0.882
- total luciferase, % of control: 99.4

PRKRA #3
- total luciferase, z-score: -0.159
- total luciferase, % of control: 78.7

More records follow:
UCP2 (uncoupling protein 2) #1
- total luciferase, z-score: 0.393
- total luciferase, % of control: 89.7

UCP2 (uncoupling protein 2) #2
- total luciferase, z-score: 0.0246
- total luciferase, % of control: 82.4

UCP2 (uncoupling protein 2) #3
- total luciferase, z-score: 0.406
- total luciferase, % of control: 90

EXOC6 (exocyst complex component 6) #1
- total luciferase, z-score: -1.07
- total luciferase, % of control: 60.6

EXOC6 (exocyst complex component 6) #2
- total luciferase, z-score: 0.412
- total luciferase, % of control: 90.1

EXOC6 (exocyst complex component 6) #3
- total luciferase, z-score: 0.342
- total luciferase, % of control: 88.7

ID3 (inhibitor of DNA binding 3) #1
- total luciferase, z-score: 2.16
- total luciferase, % of control: 125

ID3 (inhibitor of DNA binding 3) #2
- total luciferase, z-score: -0.0965
- total luciferase, % of control: 80

ID3 (inhibitor of DNA binding 3) #3
- total luciferase, z-score: 1.49
- total luciferase, % of control: 112

PDCD11 (programmed cell death 11) #1
- total luciferase, z-score: -0.443
- total luciferase, % of control: 73.1

PDCD11 (programmed cell death 11) #2
- total luciferase, z-score: -0.225
- total luciferase, % of control: 77.4

PDCD11 (programmed cell death 11) #3
- total luciferase, z-score: -0.514
- total luciferase, % of control: 71.7
